Assay results reported in PubChem BioAssay AID248 (DTP/NCI, 2004).
The list shows only some results of the screen, not a fair sample: its compounds were picked by chemical class. Not every dose and run of a compound is shown. T/C: endpoint of the treated group in % of that of the vehicle group. Some doses have a count of surviving animals in place of a T/C: the source holds a T/C of zero for them, seemingly a mark for toxic or unscored doses. Counts of survivors are from the toxicity check (mostly the fifth day) where no day follows; animals may have died later. Schedules are NCI's codes, read here as Q, the interval in days (D) or hours (H), X, the number of doses. Some schedule codes hold Z or #, which are not explained here. For survival time, the PubChem record calls one and a half times the control and up active, and a quarter to a half above the control has no call in these data; cut-offs in other NCI protocols can differ. Some entries were tested several times; the results are listed from low to high. Some T/C values are marked as having no survivor count here; that says nothing about deaths at the dose. Some T/C values are followed by the survivors on the day toxicity was checked, most often the fifth; without a count or a note in brackets, all were alive then.

Test system: L1210 leukemia ip in BDF1 mice, survival T/C
Test: NCI In Vivo Anticancer Drug Screen. Data for tumor model L1210 Leukemia (intraperitoneal) in B6D2F1 (BDF1) mice
Conditions: T/C endpoint: mean survival time, higher T/C = longer survival

In the case of `CC(C)(C)COP(=O)(O)N(CCCl)CCCl.NC1CCCCC1`, the T/C (dose: 62.5 mg/kg/injection, schedule: Q01DX Z (ip), vehicle: saline) is reported as 102 % of control, the T/C (dose: 125.0 mg/kg/injection, schedule: Q01DX Z (ip), vehicle: saline) is reported as 112 % of control and the survivor count (dose: 250.0 mg/kg/injection, schedule: Q01DX Z (ip), vehicle: saline) is reported as 3 of 6.

`N/C(=N\Nc1c([N+](=O)[O-])cc([N+](=O)[O-])cc1[N+](=O)[O-])c1cc([N+](=O)[O-])cc([N+](=O)[O-])c1` was tested, and the T/C (dose: 100.0 mg/kg/injection, schedule: Q01DX001 (ip), vehicle: carboxymethylcellulose (CMC)) was 97 % of control [survivor count not shown], the T/C (dose: 200.0 mg/kg/injection, schedule: Q01DX001 (ip), vehicle: carboxymethylcellulose (CMC)) was 87 % of control [survivor count not shown] and the T/C (dose: 400.0 mg/kg/injection, schedule: Q01DX001 (ip), vehicle: carboxymethylcellulose (CMC)) was 89 % of control [survivor count not shown].

`O=P(NC(=S)NN1CCCCC1)(Oc1ccccc1)Oc1ccccc1` was tested, and the T/C (dose: 100.0 mg/kg/injection, schedule: Q01DX009 (ip), vehicle: carboxymethylcellulose (CMC)) was 106 % of control, the T/C (dose: 200.0 mg/kg/injection, schedule: Q01DX009 (ip), vehicle: carboxymethylcellulose (CMC)) was 88 % of control and the T/C (dose: 400.0 mg/kg/injection, schedule: Q01DX009 (ip), vehicle: carboxymethylcellulose (CMC)) was 91 % of control.

`CN(C)P(=O)(Nc1ccccn1)N(C)C` was tested, and the T/C (dose: 75.0 mg/kg/injection, schedule: Q01DX001 (ip), vehicle: saline) was 96 % of control, the T/C (dose: 150.0 mg/kg/injection, schedule: Q01DX001 (ip), vehicle: saline) was 101 % of control [5 of 6 alive] and the survivor count (dose: 300.0 mg/kg/injection, schedule: Q01DX001 (ip), vehicle: saline) was 0 of 6.

In the case of `O=C(O)/C=C\c1ccccc1N(CCCl)CCCl`, the T/C (dose: 1.5 mg/kg/injection, schedule: Q01DX015 (ip), vehicle: carboxymethylcellulose (CMC)) is reported as 95 % of control, the T/C (dose: 2.9 mg/kg/injection, schedule: Q01DX Z (ip), vehicle: methylcellulose (MC)) is reported as 96 % of control and the T/C (dose: 3.0 mg/kg/injection, schedule: Q01DX015 (ip), vehicle: carboxymethylcellulose (CMC)) is reported as 86 % of control. The T/C (dose: 4.4 mg/kg/injection, schedule: Q01DX Z (ip), vehicle: methylcellulose (MC)) was 116 % of control, the T/C (dose: 6.0 mg/kg/injection, schedule: Q01DX015 (ip), vehicle: carboxymethylcellulose (CMC)) was 105 % of control and the T/C (dose: 6.25 mg/kg/injection, schedule: Q01DX001 (ip), vehicle: carboxymethylcellulose (CMC)) was 97 % of control. The T/C (dose: 6.6 mg/kg/injection, schedule: Q01DX Z (ip), vehicle: methylcellulose (MC)) was 121 and 135 % of control, the T/C (dose: 10.0 mg/kg/injection, schedule: Q01DX Z (ip), vehicle: methylcellulose (MC)) was 124 and 136 % of control and the T/C (dose: 12.0 mg/kg/injection, schedule: Q01DX015 (ip), vehicle: carboxymethylcellulose (CMC)) was 106 % of control. The T/C (dose: 12.5 mg/kg/injection, schedule: Q01DX001 (ip), vehicle: carboxymethylcellulose (CMC)) was 110 % of control, the T/C (dose: 14.8 mg/kg/injection, schedule: Q01DX Z (ip), vehicle: other) was 121 % of control and the T/C (dose: 15.0 mg/kg/injection, schedule: Q01DX Z (ip), vehicle: methylcellulose (MC)) was 119 % of control. The T/C (dose: 22.2 mg/kg/injection, schedule: Q01DX Z (ip), vehicle: other) was 111 % of control, the T/C (dose: 23.0 mg/kg/injection, schedule: Q01DX Z (ip), vehicle: methylcellulose (MC)) was 164 % of control and the T/C (dose: 24.0 mg/kg/injection, schedule: Q01DX015 (ip), vehicle: carboxymethylcellulose (CMC)) was 114 % of control. The T/C (dose: 25.0 mg/kg/injection, schedule: Q01DX001 (ip), vehicle: carboxymethylcellulose (CMC)) was 119 % of control, the survivor count (dose: 33.3 mg/kg/injection, schedule: Q01DX Z (ip), vehicle: other) was 1 of 6 and the T/C (dose: 48.0 mg/kg/injection, schedule: Q01DX015 (ip), vehicle: carboxymethylcellulose (CMC)) was 160 % of control. For the same compound, the survivor count (dose: 50.0 mg/kg/injection, schedule: Q01DX Z (ip), vehicle: other) was 0 of 6.

With `CCN(CC)CCOC(=O)C(O)(c1ccccc1)c1cc(C)cc(C)c1` (stereo not drawn) the T/C (dose: 75.0 mg/kg/injection, schedule: Q01DX001 (ip), vehicle: other) was 98 % of control and the T/C (dose: 150.0 mg/kg/injection, schedule: Q01DX001 (ip), vehicle: other) was 101 % of control.
